Laboratory results reported in patent US20200179236A1, “METHOD AND PRODUCT FOR CARIES TREATMENT” (Credentis AG, priority 2016, published 2020).

Test: Penetration of fluorescent P11-4 (200 ppm P11-4 spiked with 10 ppm ATT0647-P11-4) into artificial lesions, confocal microscopy
Set-up: species or system human; key: 1 = no or low presence; 4 = high presence of fluorescent P11-4
Settings: for presence of fluorescent P11-4, 1 mm: incubation 1 mm; for presence of fluorescent P11-4, 6 d: washing in H2O; for presence of fluorescent P11-4, 2 mm: incubation 2 mm; for presence of fluorescent P11-4, 5 mm: incubation 5 mm; for presence of fluorescent P11-4, 4 d: washing in Remin. buffer
Experimental: Creation of artificial lesions on extracted human molar teeth was performed as described by Lo et al. 2010 (J Dent. 38(4):352-359). To define the position of the demineralized subsurface area (i.e., artificial carious lesion or white spot), the tooth was covered with colorless nail varnish, leaving a window of approximately 4×4 mm. The tooth was placed in demineralization buffer (2.2 mM CaCl2, 2.2 mM NaH2PO4, 50 mM acetic acid; pH adjusted with 1 M KOH to 4.4) for 3 d at 37° C. To ensure that all pores are open, as in a typical active caries lesion, the resulting subsurface lesions were treated with 10 μL of 2% NaCIO (incubation for 1 min), rinsed, and air-dried at room temperature.
b) Treatment • A 200 ppm (i.e., 200 μg/ml) solution of P11-4 (SEQ ID NO: 2), spiked with 10 ppm ATT0647-P11-4 (fluorescence labelled P11-4 (SEQ ID NO: 6): Ac-QQRFEWEFEQQSGSGC-(ATT0647)-NH2) , i.e., 1:20, in 25 mM TRIS buffer was prepared at different pH, in particular, at 8.4 or 8.5 or 6.3, 6.5 or 6.8). • As specified in the table below, tooth were optionally pretreated, e.g., by incubation in human saliva for one day (about 24 hours), optionally followed by 5 min sonication (258 hz with a sonic toothbrush, Sonicare Diamond Clean ® (Philips)) or by immersion in 2% NaClO for 1 min. • Tooth were immersed in the P11-4 solution for a defined period of time, 1, 2 or 5 min, and then removed and washed in water for 10 min or in remineralization buffer (2 mM Ca(NO3), 1.2 mM KHPO4, and 60 mM Tris/HC1, pH adjusted to 7.4 with 1 M KOH) for 4 days and/or 6 days. • Confocal assessment after 1, 2 or 5 min incubation was carried out while the teeth were in P11-4 solution, and optionally, after washing in water or in remineralization buffer after 10 min or 4 or 6 days.
Samples were placed in a μ-slide I (ibidi, Martinsried) in dest. water and analyzed by a confocal laser microscope (Olympus IX81). The recorded stack of four 2-dimensional images each projected the lesion volume of 51.4 gm thickness, giving a total assessment depth of 205 gm (objective: UPLSAPO 20x/NA 0.75; helium-neon gas laser; excitation: 633 nm and emission: 668 nm). Images were analyzed by Olympus software (FluoView FV1000).

[1] = tooth 2, pH 8.4, no pretreatment
[2] = tooth 10, pH 8.5, no pretreatment
[3] = tooth ZR1, pH 8.5, sonification, no saliva
[4] = tooth ZR2, pH 8.5, saliva, then NaClO

Ac-QQRFEWEFEQQSGSGC-(ATT0647)-NH2 (N-acetyl, ATTO647 label, C-amide; MOD_RES 1 …ON; fluorescence labelled P11-4; MOD_RES 16 AMIDATION; MOD_RES 16 ATTO647) [fluorescent P11-4]
1: presence of fluorescent P11-4, 1 mm [1] | presence of fluorescent P11-4, 6 d [1] | presence of fluorescent P11-4, 1 mm (tooth 3, pH 6.3, saliva) | presence of fluorescent P11-4, 2 mm (tooth 3, pH 6.3, saliva) | presence of fluorescent P11-4, 5 mm (tooth 3, pH 6.3, saliva) | presence of fluorescent P11-4, 6 d (tooth 3, pH 6.3, saliva) | presence of fluorescent P11-4, 1 mm (tooth 4, pH 6.3, no saliva) | presence of fluorescent P11-4, 2 mm (tooth 4, pH 6.3, no saliva) | presence of fluorescent P11-4, 6 d (tooth 4, pH 6.3, no saliva) | presence of fluorescent P11-4, 2 mm (tooth 5, pH 8.5, saliva) | presence of fluorescent P11-4, 5 mm (tooth 5, pH 8.5, saliva) | presence of fluorescent P11-4, 1 mm [2] | presence of fluorescent P11-4, 1 mm (tooth 11, pH 8.5, saliva) | presence of fluorescent P11-4, 2 mm (tooth 11, pH 8.5, saliva) | presence of fluorescent P11-4, 5 mm (tooth 11, pH 8.5, saliva) | presence of fluorescent P11-4, 4 d (tooth 11, pH 8.5, saliva) | presence of fluorescent P11-4, 4 d (tooth 12, pH 6.5, no saliva) | presence of fluorescent P11-4, 1 mm (tooth 13, pH 6.8, saliva) | presence of fluorescent P11-4, 4 d (tooth 13, pH 6.8, saliva) | presence of fluorescent P11-4, 1 mm (tooth ZR3, pH 8.5, saliva, then sonification) | presence of fluorescent P11-4, 1 mm (tooth ZR4, pH 8.5, saliva) | presence of fluorescent P11-4, 2 mm (tooth ZR4, pH 8.5, saliva)
4: presence of fluorescent P11-4, 1 mm (tooth 1, pH 8.4, no pretreatment) | presence of fluorescent P11-4, 2 mm [2] | presence of fluorescent P11-4, 5 mm [2] | presence of fluorescent P11-4, 1 mm [3] | presence of fluorescent P11-4, 2 mm [3] | presence of fluorescent P11-4, 5 mm [3] | presence of fluorescent P11-4, 2 mm [4] | presence of fluorescent P11-4, 5 mm [4]
